Experimental data as given in the supplement of paper PMC5407854, “Inhibitor of ppGalNAc-T3-mediated O-glycosylation blocks cancer cell invasiveness and lowers FGF23 levels” (eLife, 2017).
The list shows a part of the results. Most entries show no effect beyond the scatter of the controls.

test system: ppGalNAc-T2 sensor; experiment: T2 sensor activation Q score (MG/GFP ratio z-score vs DMSO controls) (SD units); higher = more sensor activation (inhibition of ppGalNAc-T2 glycosylation); conditions: HEK293 sensor cells; 10 µM; 6 h
Description: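 Cells were treated with compound at 10 uM for 6 h, then MG/GFP ratio was read by flow cytometry (10,000 cells per well, duplicate wells). Q = (R - R_neg)/SD_neg relative to DMSO vehicle controls; the signal rises when the glycosyltransferase is inhibited.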

| Compound | T2 sensor activation Q score |
| --- | --- |
| CC(C)(C)S(=O)(=O)c1ccsc1S(C)(=O)=O | 1.53 |
| Fc1ccc(CN2CCN(c3ncccn3)CC2)c(F)c1 | 0.7 |
| O=C(O)C1CCN(c2nc(-c3ccc(Cl)cc3)cs2)CC1 | -1.42 |
| COc1cc(OC)c(OC)cc1CN1CCC(N2CCCCC2)CC1 | -0.91 |
| Cc1ccc(Oc2ccc(-c3nc(N)nc(N)n3)cc2)cc1 | 0.5 |
| CN(C)CC(O)Cn1c2ccc(Cl)cc2c2cc(Cl)ccc21 (stereo not given) | 0.785 |
| O=C(Nc1cccc(Cl)c1)N1CCCCCC1 | 2.41 |
| O=C(O)c1ccccc1-c1ncc(-c2ccccc2)o1 | -1.51 |
| CCCC(C)(C)NC(=O)c1ccccc1 | -0.165 |
| CCOc1ccc(CN2CCN(c3ccccc3OCC)CC2)cc1 | -0.78 |
| O=C1CCCc2c1nc(-c1ccccc1)n2O | 0.055 |
| COc1cc(CN2CCCN(C)CC2)cc([N+](=O)[O-])c1O | 0.535 |
| NC(=O)C1CCN(C2CC(=O)N(c3cccc(Cl)c3)C2=O)CC1 (stereo not given) | 0.165 |
| COc1cc2nc(C)[nH]c2cc1OC | -1.14 |
| COc1ccc(NC2=CC(=O)CCC2)c(OC)c1 | 0.89 |
| Cc1cccc(NC(=O)CCC(=O)O)c1 | 0.305 |
| COc1ccc(S(=O)(=O)Nc2ccc(N3CCOCC3)cc2)cc1 | -0.975 |
| Cc1cc([N+](=O)[O-])ccc1NC(=O)c1ccc(C(C)(C)C)cc1 | -0.87 |
| COc1ccccc1N1CCN(Cc2ccc(C(=O)O)cc2)CC1 | 0.3 |
| CC(O)Cn1c2ccccc2c2cc(Cl)ccc21 (stereo not given) | -0.425 |

| Compound | T2 sensor activation Q score |
| --- | --- |
| Cc1ccc2oc(-c3cccc(NC(=O)c4ccccc4I)c3)nc2c1 | -0.155 |
| O=c1[nH]c(NCCCO)nc2c1C1(CCCC1)Cc1ccccc1-2 | 0.035 |
| CC(NC(=O)c1ccccc1)C(=O)O (stereo not given) | -0.135 |
| COc1ccc2c(Cl)c(C(=O)N3CCOCC3)sc2c1 | 0.98 |
| COc1ccc(NC2=C(N(C)C)C(=O)c3ccccc3C2=O)cc1 | 0.315 |
| Cc1ccccc1OCC(=O)Nc1cccc(Cl)c1C | -1.02 |
| CN(C)CCN(C)Cc1ccc(Cl)cc1Cl | 1.77 |
| CC(=O)Nc1ccc(NC(=O)c2ccccc2Br)cc1 | -0.18 |
| O=C(c1ccc(F)cc1)N1CCN(C(=O)c2ccc(F)cc2)CC1 | -1.1 |
| CC(C)(C)c1ccc(C(=O)Nc2ccccc2Cl)cc1 | 0.14 |
| CCC1(CC)C(=O)NC(=O)N=C1N | 1.57 |
| O=C(O)CN1C(=O)c2ccc(Br)cc2C1=O | 0.195 |
| CC(C)(C)c1cc(O)c(O)c(Br)c1 | -0.165 |
| NC(=O)NC(c1ccccc1)c1ccc(Br)cc1 (stereo not given) | -0.4 |
| COc1ccc(S(=O)(=O)/C=C/c2ccccc2)cc1 | -1.2 |
| O=CN1N=C(c2ccccc2)CC1c1ccccc1 (stereo not given) | -1.28 |
| CN(C)CCNc1ccc([N+](=O)[O-])cc1Cl | 0.12 |
| O=c1c(CN2CCN(c3ccccc3)CC2)coc2ccc(Cl)cc12 | 0.565 |
| CCCOc1ccc(C(=O)N2CCCCC2)cc1OC | 0.375 |
| CC1CCCN(CC(O)COCc2ccc(Cl)cc2)C1 (stereo not given) | -0.185 |

Molecules from the list above that contain a nitro group on carbon:

| Compound | T2 sensor activation Q score |
| --- | --- |
| COc1cc(CN2CCCN(C)CC2)cc([N+](=O)[O-])c1O | 0.535 |
| Cc1cc([N+](=O)[O-])ccc1NC(=O)c1ccc(C(C)(C)C)cc1 | -0.87 |
| CN(C)CCNc1ccc([N+](=O)[O-])cc1Cl | 0.12 |
